Data taken from paper PMC7648763.
No constants are given. Whether binding was seen depends on the method and setting. Binding seen in cells or lysates may run through a third protein. Some binding calls cover weakened binding; strength is not graded here.

Chains of the proteins cited; added tags and fusions are not shown.
UniProt O08586: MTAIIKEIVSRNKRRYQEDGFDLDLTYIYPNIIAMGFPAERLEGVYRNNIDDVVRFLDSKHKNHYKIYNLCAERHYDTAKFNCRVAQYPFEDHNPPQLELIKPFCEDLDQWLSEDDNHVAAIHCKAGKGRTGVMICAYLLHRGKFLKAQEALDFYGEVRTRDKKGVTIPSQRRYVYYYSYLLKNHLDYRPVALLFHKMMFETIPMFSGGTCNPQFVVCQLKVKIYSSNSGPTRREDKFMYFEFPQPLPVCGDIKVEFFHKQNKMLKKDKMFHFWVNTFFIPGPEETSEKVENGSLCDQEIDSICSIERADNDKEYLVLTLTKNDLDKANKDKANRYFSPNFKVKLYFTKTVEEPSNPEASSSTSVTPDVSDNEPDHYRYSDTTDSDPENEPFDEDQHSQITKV
UniProt P26369: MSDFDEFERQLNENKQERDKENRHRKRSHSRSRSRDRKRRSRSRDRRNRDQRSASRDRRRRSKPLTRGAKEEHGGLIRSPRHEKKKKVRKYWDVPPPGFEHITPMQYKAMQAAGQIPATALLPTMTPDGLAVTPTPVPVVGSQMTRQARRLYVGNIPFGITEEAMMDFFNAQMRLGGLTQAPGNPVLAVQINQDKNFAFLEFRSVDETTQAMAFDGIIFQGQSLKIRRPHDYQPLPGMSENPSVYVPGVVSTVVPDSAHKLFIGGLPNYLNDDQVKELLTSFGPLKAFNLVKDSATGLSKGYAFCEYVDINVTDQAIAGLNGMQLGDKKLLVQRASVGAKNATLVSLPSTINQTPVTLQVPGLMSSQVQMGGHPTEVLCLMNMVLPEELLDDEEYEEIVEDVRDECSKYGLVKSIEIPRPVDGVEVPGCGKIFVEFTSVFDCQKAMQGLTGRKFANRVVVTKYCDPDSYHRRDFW

Target: Pten (wild type) (mouse (endogenous in cortex)) (UniProt O08586)
Assay: co-IP; co-IP of Pten and U2af2 with nuclear/cytoplasmic fractionation; nuclear fractions of cortical lysates from wild-type, heterozygous and homozygous Pten m3m4 mice; Western blot

binding: binds
Substance: U2af2 (from UniProt P26369 1-475)
